Measurements reported in PubChem BioAssay AID720710 (VTT Finland, 2013).
The whole screen tested about 1,380 reagents; this is an unselected part. 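One array per condition without replicates; hydroxyurea arrays received 2 mM for 16 h plus 3 h recovery.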 Reagents against one gene are numbered here. Not all columns of the deposit are shown.

Aim: 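siRNAs sensitising CCNE1-overexpressing U-2 OS cells to replication stress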 (primary screen)
Cell system: human U-2 OS bone cancer cells, parental and a cyclin E (CCNE1) overexpressing line
Knock-down reagent: single siRNA against human genes, 1 µM siRNA in the printed spot mix
Timing: 67 h
Challenge: half the arrays: hydroxyurea 2 mM for 16 h, then 3 h recovery; other arrays untreated
Detection: 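DNA synthesis measured as imaged EdU uptake per nucleus (DAPI) at 67 h, normalised to subgrid median and given as z-score versus non-targeting controls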
Reading the numbers: EdU z-score, cyclin E line, hydroxyurea: higher = more DNA synthesis than non-targeting controls

The opening 4 records, ahead of the listing:
no.	Gene	reagent no.	EdU z-score, cyclin E line, hydroxyurea
1	ACD	1	-0.678
2	ACD	2	-0.0757
3	HDAC10	1	-1.76
4	HDAC10	2	-0.634

Results, repeating the preview:
no.	Gene	reagent no.	EdU z-score, cyclin E line, hydroxyurea
1	ACD	1	-0.678
2	ACD	2	-0.0757
3	HDAC10	1	-1.76
4	HDAC10	2	-0.634
5	BARD1	1	-0.48
6	BARD1	2	0.234
7	SMG6	1	-0.981
8	SMG6	2	-0.422
9	TINF2	1	-0.643
10	TINF2	2	0.51
11	RBMS1	1	-2.54
12	RBMS1	2	-0.429
13	RNGTT	1	0.165
14	RNGTT	2	0.797
15	SESN2	1	0.778
16	SESN2	2	0.781
17	ARID1A	1	-0.64
18	ARID1A	2	-0.55
19	SMC1B	1	-3.86
20	SMC1B	2	-1.74
21	DCLRE1A	1	-0.737
22	DCLRE1A	2	1.98
23	RBM14	1	-2.2
24	RBM14	2	0.351
25	ZNF142	1	-0.775
26	ZNF142	2	-0.601
27	IGF1	1	-0.576
28	IGF1	2	1.06
29	NFIA	1	-2.11
30	NFIA	2	1.72
31	CUL4A	1	0.178
32	CUL4A	2	1.3
33	PARP3	1	0.285
34	PARP3	2	0.987
35	H2BC8	1	-0.701
36	H2BC8	2	0.0823
37	BTG2	1	-0.107
38	BTG2	2	0.335
39	CDK7	1	-0.661
40	CDK7	2	-0.643
